The record followed here is PMC5040961.

Results are given in words; binding and its absence hold for the method and conditions named. In cells and extracts the contact can be indirect. Binding can be weak; no strength is given. Sequences can lack the tags named with a protein.

The target in the assay is T1, FLAG-tagged Lgl1 (Lethal giant larvae 1) (mouse) (UniProt Q80Y17).
T1 sequence: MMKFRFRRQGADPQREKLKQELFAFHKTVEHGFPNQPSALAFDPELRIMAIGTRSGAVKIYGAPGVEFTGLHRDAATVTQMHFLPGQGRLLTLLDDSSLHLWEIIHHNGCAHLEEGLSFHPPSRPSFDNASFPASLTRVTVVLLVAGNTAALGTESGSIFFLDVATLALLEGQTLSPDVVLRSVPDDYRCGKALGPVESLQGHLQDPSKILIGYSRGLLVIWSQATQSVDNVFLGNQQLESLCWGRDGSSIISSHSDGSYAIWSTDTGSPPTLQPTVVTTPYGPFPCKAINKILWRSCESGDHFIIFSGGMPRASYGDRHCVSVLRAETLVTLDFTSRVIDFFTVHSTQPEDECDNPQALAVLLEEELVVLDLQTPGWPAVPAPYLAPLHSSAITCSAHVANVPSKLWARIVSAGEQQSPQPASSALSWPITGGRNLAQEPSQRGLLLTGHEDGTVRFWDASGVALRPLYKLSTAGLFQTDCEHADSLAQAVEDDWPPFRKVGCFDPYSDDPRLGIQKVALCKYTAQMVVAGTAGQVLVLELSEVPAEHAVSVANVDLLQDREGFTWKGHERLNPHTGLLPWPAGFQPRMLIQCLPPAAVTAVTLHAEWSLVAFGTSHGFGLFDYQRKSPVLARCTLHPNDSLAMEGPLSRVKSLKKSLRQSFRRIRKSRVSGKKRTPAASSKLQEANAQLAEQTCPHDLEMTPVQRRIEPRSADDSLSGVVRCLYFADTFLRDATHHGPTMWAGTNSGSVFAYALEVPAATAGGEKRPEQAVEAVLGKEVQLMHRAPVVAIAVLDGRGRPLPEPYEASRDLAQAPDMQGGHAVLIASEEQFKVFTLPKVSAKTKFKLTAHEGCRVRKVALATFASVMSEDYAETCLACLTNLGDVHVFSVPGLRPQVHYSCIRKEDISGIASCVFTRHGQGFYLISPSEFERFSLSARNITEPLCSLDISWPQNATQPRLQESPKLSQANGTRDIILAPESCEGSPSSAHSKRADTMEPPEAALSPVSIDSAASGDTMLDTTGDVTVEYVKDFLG
Kind of assay: co-IP; lysates of HEK293T cells co-expressing HA-PKCζ-wt or HA-PKCζ-Smut with FLAG-Lgl1 (NP40 lysis buffer); IP with anti-FLAG M2 affinity gel, 1-2 h at 4 °C; western blot with HA and FLAG antibodies.

Turning to “HA-PKCζ-Smut (PKCζ-SUMOylation-defective mutant, K225/284/378R) (human) (enzyme)”, the binding entry is “binds”.
For HA-PKCζ-wt (human) (enzyme), the binding entry was “binds”.
